PubChem BioAssay AID1259331 – Drosophila RNAi Screening Center | 2017

Test: 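Fly transmembrane-protein genes that affect zinc toxicity in cultured cells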 (primary screen)
System: Drosophila S2R+ cells
Knock-down reagent: long dsRNA against Drosophila genes
Timing: 5 days (4 days knock-down, then 1 day zinc)
Challenge: zinc chloride at 15 mM final level for 1 day
Measurement: 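Luminescent ATP assay standing in for viability; Z score is the mean over three replicate plates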
Reading the numbers: mean Z score: higher = more ATP than other wells, better survival under zinc; ATP luminescence: higher = more ATP, more viable cells
Active means: 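a reagent is called a hit when its Z score is above 1.5 or below -1.5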
Meaning of the calls: active = hit, ATP up or down; inactive = not a hit
Shown is an unselected part of about 3,100 deposited reagents. Of all reagents, 126 (4.1%) got an active call. 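Calls are per reagent; zinc was so toxic that few knock-downs lowered ATP further, so most hits raise ATP.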 Raw values are not corrected between plates. Entries without a mark were called inactive. Not given: the amount of reagent.

CG14219 [DRSC19576]: mean Z score = -0.286; ATP luminescence, replicate 1 = 38668; ATP luminescence, replicate 2 = 40022
CG14219 [DRSC26450]: mean Z score = 0.355; ATP luminescence, replicate 1 = 64919; ATP luminescence, replicate 2 = 63753
Ndc1 [DRSC15895]: mean Z score = 1.79 (active); ATP luminescence, replicate 1 = 67818; ATP luminescence, replicate 2 = 63479
Ndc1 [DRSC39536]: mean Z score = 1.95 (active); ATP luminescence, replicate 1 = 71275; ATP luminescence, replicate 2 = 72262
ics [DRSC29655]: mean Z score = -0.0487; ATP luminescence, replicate 1 = 62535; ATP luminescence, replicate 2 = 58716
Proc-R [DRSC18410]: mean Z score = -0.598; ATP luminescence, replicate 1 = 56945; ATP luminescence, replicate 2 = 55303
Proc-R [DRSC39733]: mean Z score = -0.619; ATP luminescence, replicate 1 = 50515; ATP luminescence, replicate 2 = 51972
CG30394 [DRSC04074]: mean Z score = 0.64; ATP luminescence, replicate 1 = 57330; ATP luminescence, replicate 2 = 40605
CG30394 [DRSC04260]: mean Z score = 0.257; ATP luminescence, replicate 1 = 69687; ATP luminescence, replicate 2 = 70956

Continued (2 carried over from the part before).
CG30394 [DRSC04074]: mean Z score = 0.64; ATP luminescence, replicate 1 = 57330; ATP luminescence, replicate 2 = 40605
CG30394 [DRSC04260]: mean Z score = 0.257; ATP luminescence, replicate 1 = 69687; ATP luminescence, replicate 2 = 70956
anchor [DRSC10861]: mean Z score = 0.368; ATP luminescence, replicate 1 = 42851; ATP luminescence, replicate 2 = 32218
CG17929 [DRSC15291]: mean Z score = -0.619; ATP luminescence, replicate 1 = 35197; ATP luminescence, replicate 2 = 41874
CG17929 [DRSC39673]: mean Z score = 5.5 (active); ATP luminescence, replicate 1 = 1.52e5; ATP luminescence, replicate 2 = 1.41e5
Ir11a [DRSC19699]: mean Z score = 0.466; ATP luminescence, replicate 1 = 72054; ATP luminescence, replicate 2 = 75536
Ir11a [DRSC39480]: mean Z score = 0.116; ATP luminescence, replicate 1 = 54699; ATP luminescence, replicate 2 = 50159
Tsp42Ep [DRSC06871]: mean Z score = -0.531; ATP luminescence, replicate 1 = 38685; ATP luminescence, replicate 2 = 39508
Osi14 [DRSC12368]: mean Z score = 3.68 (active); ATP luminescence, replicate 1 = 1.51e5; ATP luminescence, replicate 2 = 1.28e5
Osi14 [DRSC26397]: mean Z score = -0.159; ATP luminescence, replicate 1 = 54990; ATP luminescence, replicate 2 = 55093
Delta [DRSC16648]: mean Z score = -0.258; ATP luminescence, replicate 1 = 36062; ATP luminescence, replicate 2 = 62107
Delta [DRSC24112]: mean Z score = 0.469; ATP luminescence, replicate 1 = 62981; ATP luminescence, replicate 2 = 61129
TyrRII [DRSC25254]: mean Z score = 0.509; ATP luminescence, replicate 1 = 70596; ATP luminescence, replicate 2 = 67852
CG17075 [DRSC00483]: mean Z score = 0.0798; ATP luminescence, replicate 1 = 57157; ATP luminescence, replicate 2 = 57545
CG17075 [DRSC26505]: mean Z score = -0.301; ATP luminescence, replicate 1 = 57923; ATP luminescence, replicate 2 = 48200
CG16825 [DRSC02526]: mean Z score = 0.12; ATP luminescence, replicate 1 = 54767; ATP luminescence, replicate 2 = 36651
CG16825 [DRSC39689]: mean Z score = 0.206; ATP luminescence, replicate 1 = 62535; ATP luminescence, replicate 2 = 61884
